Experimental data: PubChem BioAssay AID1671190 (National Center for Advancing Translational Sciences (NCATS), 2021)
Out of some 580,000 compounds screened, about 6,100 (1.1%) were called active. The shares of active, inactive and inconclusive entries below differ from those in the screen. Calls follow the shape of the dose curve; as a rule, active = well fitted inhibition curve with a large enough effect; inconclusive = small, poorly fitted or top-dose-only effect, or another doubt; inactive = no such curve, though single readings can be large or run the other way. Potencies of inconclusive entries are doubtful fits and often do not repeat.

The chains behind the UniProt entries cited, without tags or fusion partners. Where a name states a change or a piece, a line headed by the entry shows the natural chain unless it says otherwise.
UniProt P18054: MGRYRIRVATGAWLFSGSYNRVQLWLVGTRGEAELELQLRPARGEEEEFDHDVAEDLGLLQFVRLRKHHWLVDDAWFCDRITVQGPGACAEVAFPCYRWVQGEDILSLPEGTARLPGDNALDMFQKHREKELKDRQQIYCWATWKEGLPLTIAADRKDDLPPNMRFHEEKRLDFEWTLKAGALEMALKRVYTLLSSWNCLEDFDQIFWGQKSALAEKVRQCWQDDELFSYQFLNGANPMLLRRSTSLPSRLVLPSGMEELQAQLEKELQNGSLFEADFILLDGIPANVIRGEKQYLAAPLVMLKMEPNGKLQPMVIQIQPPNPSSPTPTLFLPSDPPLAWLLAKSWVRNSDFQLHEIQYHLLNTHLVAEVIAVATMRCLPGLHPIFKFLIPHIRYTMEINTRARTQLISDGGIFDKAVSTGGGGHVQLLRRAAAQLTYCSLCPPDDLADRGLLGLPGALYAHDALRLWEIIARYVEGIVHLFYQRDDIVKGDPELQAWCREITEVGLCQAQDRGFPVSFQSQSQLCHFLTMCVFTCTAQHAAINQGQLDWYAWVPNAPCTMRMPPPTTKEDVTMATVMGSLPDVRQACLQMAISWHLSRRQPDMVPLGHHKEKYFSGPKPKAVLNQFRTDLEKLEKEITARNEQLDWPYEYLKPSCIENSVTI

biological target: Polyunsaturated fatty acid lipoxygenase ALOX12 (Homo sapiens) (UniProt P18054); experiment: Primary qHTS assay for inhibitors of human arachidonate 12S-lipoxygenase (ALOX12): Round 2; details: purified 12hLO, xylenol orange hydroperoxide absorbance; activity change, negative = inhibition: at 108 µM (top of the series) unless noted
In short: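 Purified human 12hLO (150 nM final) in 25 mM Hepes, 0.01% Triton X-100, pH 7.0 was preincubated 15 min at room temperature with compound. Then 40 uM arachidonic acid was added, 30 min. Hydroperoxide was read by Fe-XO absorbance ratio 573/405 nm.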
% is scaled to controls: 0 for no effect and ±100 for the full control effect; potency is read from the fitted curve at half-maximal effect.

Row | SMILES | activity change, negative = inhibition | Potency
1 | CN(C)S(=O)(=O)c1cccc(NC(=O)COC(=O)c2cc(-c3cccc(Br)c3)nc3ccccc23)c1 | inactive: -2.87% | –
2 | COC(=O)[C@]1(C)N[C@H](CN(C)C(=O)c2ccc(F)cc2)[C@@H]2C(=O)N(Cc3ccccc3)C(=O)[C@@H]21 | – | inconclusive: 5.62 µM [inhibitor, full curve, poor fit]
3 | Cc1ccc(S(=O)(=O)N(C)C)cc1NC(=O)c1nn(Cc2ccccc2)c(=O)c2ccccc12 | inactive: 6.8% | –
4 | COc1ccc(C(=O)N2CCCC(c3nn(-c4ccc(OC)cc4)c(=O)[nH]3)C2)cc1 (stereo unspecified) | – | inconclusive: 39.8 µM [inhibitor, full curve, poor fit]
5 | N#Cc1cc2c(nc1SCc1cccnc1)CCCC2 | – | inconclusive: 22.4 µM [inhibitor, partial curve, poor fit]
6 | CCC1Oc2nc(SC)nnc2-c2ccccc2N1C(C)=O (stereo unspecified) | inactive: -8.59% | –
7 | O=C(NCc1ccccc1)C(=O)c1cn(CC(=O)N2CCOCC2)c2ccccc12 | – | inconclusive: 35.5 µM [inhibitor, single point]
8 | CC[C@@]1(C(=O)OC)N[C@H](CN(C)C(=O)c2ccc(F)cc2)[C@@H]2C(=O)N(C)C(=O)[C@@H]21 | – | active: 8.91 µM
9 | CC(C)c1ccc(C(C)NC(=S)NC2CCCCC2)cc1 (stereo unspecified) | – | inconclusive: 44.7 µM [inhibitor, partial curve, poor fit]
10 | Cc1cccc(NC(=O)CCc2ccc(C)o2)c1 | – | inconclusive: 31.6 µM [inhibitor, single point]
11 | CO[C@H]1[C@H](NC(=O)c2cnn3cccnc23)c2ccccc2C12CCNCC2 | inactive: 5.38% | –
12 | O=c1c(CCc2ccccc2)nc2cnc(N3CCNCC3)nc2n1Cc1ccc(F)cc1 | inactive: 0% | –
13 | O=C1C2C3c4ccccc4C(c4ccccc43)C2C(=O)N1Cc1ccco1 (stereo unspecified) | inactive: 5.53% | –
14 | COc1ccc(-c2csc3nc(C)n(-n4cccc4)c(=O)c23)cc1 | – | inconclusive: 126 µM [inhibitor, single point]
15 | CCN(CC)CCCN1C(=O)C(O)=C(C(=O)c2ccco2)C1c1ccc(C)o1 (stereo unspecified) | – | inconclusive: 35.5 µM [inhibitor, partial curve, poor fit]
16 | Cc1cc2c(c(=O)n(-c3ccccc3)c(=O)n2CC(=O)Nc2ccc(F)cc2)n1C | inactive: 41.8% | –
17 | Cc1cc(C=C2C(=O)c3ccccc3C2=O)c(C)n1-c1ccc(C(=O)O)cc1 | – | inconclusive: 56.2 µM [inhibitor, partial curve, poor fit]
18 | O=C(Nc1ccc(F)cc1)Nc1cccnc1Cl | – | inconclusive: 31.6 µM [inhibitor, partial curve, poor fit]
19 | CCN1C(=O)[C@H]2[C@@H](c3ccc(C(F)(F)F)cc3)N[C@]3(CCCN(Cc4ccc(C)cc4)C3=O)[C@H]2C1=O | – | inconclusive: 14.1 µM [inhibitor, full curve, poor fit]
20 | C/C(N)=C(/C#N)C(=O)COC(=O)c1ccccc1Oc1ccccc1 | inactive: -5.59% | –
21 | CCOc1ccc(N2CC(O)=C(c3ccccc3)C2=N)cc1 | – | inconclusive: 50.1 µM [inhibitor, partial curve, poor fit]

Entries of single compounds from above. Values in the order: activity change, negative = inhibition | Potency
C/C(N)=C(/C#N)C(=O)COC(=O)c1ccccc1Oc1ccccc1 is listed as inactive: -5.59% | –
CC(C)c1ccc(C(C)NC(=S)NC2CCCCC2)cc1 (stereo unspecified) is listed as – | inconclusive: 44.7 µM [inhibitor, partial curve, poor fit]

Remaining list, next part

Row | SMILES | activity change, negative = inhibition | Potency
22 | Cc1ccccc1/C=C1\CCCc2ccccc2C1=O | – | inconclusive: 50.1 µM [inhibitor, partial curve, poor fit]
23 | O=C(Cn1nc(C(=O)O)c2ccccc2c1=O)Nc1ccc(F)c(F)c1 | – | inconclusive: 39.8 µM [inhibitor, partial curve, poor fit]
24 | CCOC(=O)CC(N)c1ccc(OC)cc1 (stereo unspecified) | – | inconclusive: 35.5 µM [inhibitor, single point]
25 | COc1cccc(CNCc2c(C(=O)O)c(C)n(Cc3cc(C)ccc3C)c2C)c1OC | inactive: -13% | –
26 | COc1cccc2sc3ccc(C#Cc4ccc(N)cc4)cc3c(=O)c12 | inactive: 5.56% | –
27 | COc1ccc(N2C(=O)c3n[nH]c(C(C)C)c3C2c2ccc(F)cc2)cc1 (stereo unspecified) | – | inconclusive: 50.1 µM [inhibitor, partial curve, poor fit]
28 | Oc1ccc(C(=S)N2CCCC2)cc1 | – | inconclusive: 6.31 µM [inhibitor, partial curve, poor fit]
29 | COc1ccc2cc(C(=O)N3CCN(S(=O)(=O)c4ccc(C)cc4)CC3)c(C)nc2c1 | – | inconclusive: 25.1 µM [inhibitor, partial curve, poor fit]
30 | O=C(NCc1ccncc1)C12C[C@H]3C[C@@H](C1)CC(c1ccc(Cl)cc1)(C3)C2 | – | inconclusive: 15.3 µM [inhibitor, partial curve, poor fit]
31 | O=C(c1ccc(Cl)c(Cl)c1)N1CCN(Cc2cc(=O)n3ccsc3n2)CC1 | – | inconclusive: 141 µM [inhibitor, partial curve, poor fit]
32 | O=c1[nH]c(N/N=C\c2ccc3c(c2)OCO3)nc2ccccc12 | – | inconclusive: 44.7 µM [inhibitor, partial curve, poor fit]
33 | COc1ccc(Nc2c(-c3ccc(OC)cc3)nc3cnccn23)cc1 | – | inconclusive: 50.1 µM [inhibitor, partial curve, poor fit]
34 | Cc1ccc(-c2nc(-c3nc(-c4ccc(C)cc4C)cs3)sc2C)cc1 | – | inconclusive: 56.2 µM [inhibitor, partial curve, poor fit]
35 | Cc1ccc(-c2ocnc2C(=O)NCCC(C)C)s1 | inactive: -6.11% | –
36 | O=C1Nc2ccccc2/C1=C/c1ccccc1Cl | inactive: -2.36% | –
37 | Cc1noc(C)c1COc1ccccc1C(=O)NCc1ccco1 | – | inconclusive: 10 µM [inhibitor, partial curve, poor fit]
38 | COc1ccc(-c2nc(C)nc3c2CN([S+](=O)([O-])c2onc(C)c2C)CC3)cc1 | – | inconclusive: 15.8 µM [inhibitor, full curve, poor fit]
39 | COc1ccccc1N(C(=O)CCl)c1cn(C(C)=O)c2ccccc12 | inactive: 0% | –
40 | CCCN(C(=O)CCc1nc(-c2ccc(C)cc2)no1)c1ccc(OCC)cc1 | – | inconclusive: 35.5 µM [inhibitor, partial curve, poor fit]
41 | CC(=O)Nc1cccc(-c2n[nH]c3c2CC(=O)N(Cc2ccccc2F)C3)c1 | – | inconclusive: 39.8 µM [inhibitor, single point]
